Measured data: PubChem BioAssay AID1259299 (Sanger Institute, 2017)
The whole screen tested 794 reagents; below is a random part of them. 9 of them (1.1%) count as active. 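Calls rest on knock-down alone; synergy scores play no part in calls, and no gene passed the synergy cut.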 Viability is capped at 1. Further read-outs or replicates are left out here. Not given: the amount of reagent, the time to read-out.

Assay: 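Knock-down screen of kinome and colorectal mutation genes alongside three targeted drugs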 (primary screen)
Cells: human CAR1 colorectal cancer cells
Reagents: siRNA pool against human genes
Treatment: anchor drug BYL719 1 µM, cetuximab 5 µg/ml or trametinib 10 nM, or DMSO vehicle alone; exposure length not given
Measurement: 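Mean replicate viability versus non-targeting controls, turned into robust z-scores, plus drug synergy scores for BYL719, cetuximab and trametinib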
Direction: viability robust z-score, knock-down alone and viability, knock-down alone (DMSO): higher = more viable cells; synergy score with BYL719: higher = stronger synergy with drug (synthetic lethal)
Rule for the call: 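a gene is called essential if its knock-down-alone viability z-score drops under -3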
Meaning of the calls: active = essential (knock-down alone); inactive = no change

gene	viability robust z-score, knock-down alone	viability, knock-down alone (DMSO) (fraction of control)	synergy score with BYL719	activity call
PTEN (GeneID 5728)	0.255	0.951	-0.204	inactive
PACSIN1 (GeneID 29993)	0.674	0.989	-0.178	inactive
GRK3 (GeneID 157)	0.789	1	-0.188	inactive
DGKA (GeneID 1606)	0.19	0.945	0.128	inactive
CDKL2 (GeneID 8999)	0.286	0.954	0.104	inactive
KALRN (GeneID 8997)	0.551	0.978	-0.173	inactive
NEK6 (GeneID 10783)	0.789	1	-0.0721	inactive
TSSK6 (GeneID 83983)	0.428	0.967	-0.00757	inactive
EIF2AK1 (GeneID 27102)	-0.249	0.904	-0.21	inactive
PRKCQ (GeneID 5588)	0.505	0.974	-0.0488	inactive
PTPN11 (GeneID 5781)	0.789	1	-0.105	inactive
STK25 (GeneID 10494)	-1.12	0.823	-0.106	inactive
AK7 (GeneID 122481)	-0.00184	0.927	-0.172	inactive
MYO3B (GeneID 140469)	0.378	0.962	-0.216	inactive
SMAD2 (GeneID 4087)	0.511	0.974	-0.0601	inactive
AURKB (GeneID 9212)	-2.87	0.662	-0.0779	inactive
STK38L (GeneID 23012)	-1.23	0.814	-0.106	inactive
CSNK1E (GeneID 1454)	-2.54	0.692	-0.0586	inactive
MAGI1 (GeneID 9223)	0.363	0.961	-0.103	inactive
RIOK1 (GeneID 83732)	-0.0667	0.921	-0.205	inactive
MPP2 (GeneID 4355)	0.789	1	-0.121	inactive
TNIK (GeneID 23043)	-0.506	0.88	-0.136	inactive
MYO3A (GeneID 53904)	0.789	1	-0.0308	inactive
KSR1 (GeneID 8844)	-2.6	0.687	-0.0261	inactive
ROS1 (GeneID 6098)	-0.498	0.881	-0.05	inactive
PIK3R3 (GeneID 8503)	0.789	1	-0.117	inactive
TRPM7 (GeneID 54822)	0.789	1	-0.141	inactive
PIK3R5 (GeneID 23533)	0.0377	0.931	0.0471	inactive
DGUOK (GeneID 1716)	0.286	0.954	0.0761	inactive
COQ8B (GeneID 79934)	0.789	1	-0.206	inactive

No new results follow: 2 of the entries above.
gene	viability robust z-score, knock-down alone	viability, knock-down alone (DMSO) (fraction of control)	synergy score with BYL719	activity call
ROS1 (GeneID 6098)	-0.498	0.881	-0.05	inactive
PIK3R3 (GeneID 8503)	0.789	1	-0.117	inactive

The results go on:
gene	viability robust z-score, knock-down alone	viability, knock-down alone (DMSO) (fraction of control)	synergy score with BYL719	activity call
ULK4 (GeneID 54986)	-0.209	0.908	-0.127	inactive
BRWD1 (GeneID 54014)	0.196	0.945	-0.0356	inactive
PDGFRB (GeneID 5159)	-1.68	0.772	-0.0614	inactive
EPHA7 (GeneID 2045)	-0.185	0.91	-0.0951	inactive
FN3K (GeneID 64122)	-0.896	0.844	-0.0448	inactive
CDC73 (GeneID 79577)	-0.222	0.907	-0.227	inactive
RIPK2 (GeneID 8767)	-0.466	0.884	-0.124	inactive
IGF1R (GeneID 3480)	-1.16	0.82	-0.0387	inactive
PAK5 (GeneID 57144)	0.789	1	-0.145	inactive
ADCK5 (GeneID 203054)	0.789	1	-0.104	inactive
CDC7 (GeneID 8317)	-0.981	0.837	-0.223	inactive
MAP3K5 (GeneID 4217)	-0.00676	0.927	-0.194	inactive
ROCK1 (GeneID 6093)	0.789	1	-0.0504	inactive
EPHA10 (GeneID 284656)	-1.68	0.772	-0.181	inactive
PFKP (GeneID 5214)	0.789	1	-0.0332	inactive
APC (GeneID 324)	0.789	1	-0.0734	inactive
SOX9 (GeneID 6662)	-0.271	0.902	-0.0952	inactive
CDK1 (GeneID 983)	0.751	0.997	-0.14	inactive
RBM10 (GeneID 8241)	0.484	0.972	-0.0825	inactive
NEK11 (GeneID 79858)	0.0507	0.932	-0.0606	inactive
